Out of some 53,000 sequences screened, about 3,700 (7%) were called active.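 How the source made its calls: active means gene knockdowns whose robust z-score for IL-1 alpha signal is at least 2 or at most -2, so actives lie on both sides; inactive means the rest.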 The list shows a part of the results.

This assay is described as follows: Components of the Cytosolic LPS Sensing Pathway: Gene Identification via Genome-wide siRNA Screen.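 Further: robust z of the log signal after scaling to non-targeting control siRNA wells of the plate.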 The conditions noted are these: RAW264.7 macrophages, IL-1a HTRF, actives lie on both sides, screened at 100 nM (by protocol), cells primed 5 h with Pam3CSK4 first. The method in brief:
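IL-1a HTRF of supernatants after 24 hour LipidA transfection of Pam3CSK4-primed (5 hours) RAW264.7 cells, 48h post-siRNA transfection (100 nM). Scores: percent of plate negative-control median, then log-based robust z-score.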
As to GGGCAGUGUACUGUUUAACTT against Rhpn1, the z-score is inactive: 0.709.
CCAGUACAAAGCCACAAUATT against Rab7: the z-score was active: 5.54.
To GGCUUUGGAUUUGUCAAGUTT against Dazap1 belongs inactive: -0.804; to GGAUGUGAAAUUCAAGCUUTT against Dhx34, inactive: -0.457; to GGAUGAAGAAACAAGAAAGTT against Tmc1, active: -2.46.
For CCUCUUAUACCUUUAACUCTT against Clpb, the z-score is inactive: -0.747.
On to GUUUUAGUGUGGCUGCAUUTT against Gsta2, for which the z-score was inactive: 0.135.
Consider GGCAAUGUUACCAUUCACUTT against Il6ra, for which the z-score is inactive: -1.06.
For the sequence GCCUAGAGACAUUUCUACCTT against Bcl2l10, the z-score is inactive: 1.31.
Regarding GCGACUACUUAGACACUUUTT against Snx30, the z-score was inactive: 0.724.
Consider CGUGGGCUCUGUUGACAUUTT against Olfr492, for which the z-score was inactive: 0.869.
With “GGAGAUUUUCAAGAGACUCTT against 0610010F05Rik”, the z-score was inactive: 1.94.
Under CCGGUUACAAACUCAACUGTT against Syne3 stands inactive: -0.285; under CGCACAUUCUUCAUAACACTT against Kdm8, inactive: -1.57; under CCCUAUAGACCAGUGCAAUTT against Cnih1, inactive: 0.478.
Under GGGCUAGCUAGCAAAAGCATT against Prr13 stands inactive: -1.83; under AAUGCUAAUUACCAUGACATT against Adgrl3, inactive: 0.264.
To GGUGGUGGAUGAUGAAGACTT against Myo7a belongs inactive: -0.0254.
With GGAUAAGCCUUAAGGAAAATT against Stard5, the z-score is inactive: 1.19.
To CGAGACUCUAUCUUUGUCCTT against St3gal3 belongs inactive: -0.785.
Take GGUCUGGGACUGAAGCACUTT against Sec14l3: the z-score is inactive: -0.341.
Regarding GGAGAGACUUGAGAUUGUCTT against Ptx3, the z-score is inactive: 0.245.
In the case of GCCAUAUUCAAAUAACUGATT against Tor3a, the z-score is inactive: -0.709.
Take GGAAGAAAAACAGCAGAUCTT against Dync1i1: the z-score was inactive: -1.04.
Under GGACCUCUUCCUGAUGGAUTT against Yap1 stands inactive: 1.87; under GGUCUUCCAAGAAAAAGGCTT against a, inactive: 1.07.
Under “GCUCUUUACCCAUCACUAATT against 8030451A03Rik” stands inactive: -1.39.
Under GGGACAGUCUUCAGUGACATT against Czib stands inactive: 1.1; under GGCUUACACAAAAAUCUGUTT against Camk2d, inactive: -0.36.
Consider GGGCCAGCAAGGAAAGAAUTT against Pitx2, for which the z-score is inactive: -1.37.

The values above are taken from PubChem BioAssay AID1508600 (Functional Genomics Laboratory (NCATS/FGL), 2020).
